Test results: publication PMC13280575

Chains of the proteins cited; added tags and fusions are not shown. Lines headed by an entry give the natural chain unless they say otherwise; changes in a name come on top.
UniProt P14859: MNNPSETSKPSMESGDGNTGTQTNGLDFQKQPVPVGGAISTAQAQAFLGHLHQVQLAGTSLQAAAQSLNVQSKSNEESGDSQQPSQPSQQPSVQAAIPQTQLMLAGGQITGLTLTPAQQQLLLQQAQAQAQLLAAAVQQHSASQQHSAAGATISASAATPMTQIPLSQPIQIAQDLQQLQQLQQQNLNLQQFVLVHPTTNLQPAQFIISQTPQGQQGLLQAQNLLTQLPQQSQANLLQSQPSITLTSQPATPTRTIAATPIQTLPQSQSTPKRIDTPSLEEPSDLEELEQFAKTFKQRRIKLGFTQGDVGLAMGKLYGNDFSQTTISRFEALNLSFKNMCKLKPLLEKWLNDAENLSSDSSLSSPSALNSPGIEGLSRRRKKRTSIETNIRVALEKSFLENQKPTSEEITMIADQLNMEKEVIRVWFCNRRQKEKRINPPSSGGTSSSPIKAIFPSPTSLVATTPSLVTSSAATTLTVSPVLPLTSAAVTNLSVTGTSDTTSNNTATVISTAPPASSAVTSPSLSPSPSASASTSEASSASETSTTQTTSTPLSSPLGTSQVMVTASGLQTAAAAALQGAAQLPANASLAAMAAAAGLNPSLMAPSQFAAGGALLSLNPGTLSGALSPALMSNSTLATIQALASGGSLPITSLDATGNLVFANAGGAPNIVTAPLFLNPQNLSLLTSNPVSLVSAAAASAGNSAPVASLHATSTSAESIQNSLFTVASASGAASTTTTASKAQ

Target: FLAG-POU domain of POU2F1(OCT-1), in vitro translated (human) (UniProt P14859)
Experiment: pull-down; in vitro translated FLAG-POU on anti-FLAG M2 agarose beads, alone or first with in vitro translated (myc)6-BRCA1 fragment (1 h, 4 °C), then [35S]-labelled (myc)6-PER2 (2 h); autoradiography

B1: (myc)6-BRCA1 (1670–1863), in vitro translated (domain or fragment, UniProt P38398 1670-1863)
chain: RKHHITLTNLITEETTHVVMKTDAEFVCERTLKYFLGIAGGKWVVSYFWVTQSIKERKMLNEHDFEVRGDVVNGRNHQGPKRARESQDRKIFRGLEICCYGPFTNMPTDQLEWMVQLCGASVVKELSSFTLGTGVHPIVVVQPDAWTEDNGFHAIGQMCEAPVVTREWVLDSVALYQCQELDTYLIPQIPHSHY
modifications: [35S]-methionine label
binding: binds

No constants are given. Whether binding was seen depends on the method and setting. Binding seen in cells or lysates may run through a third protein. A result given as binding can be weak or reduced; the word gives no strength. Sequences can lack the tags named with a protein.
